# “And” between values parts separate entries of the source, which are not always exact repeats. Equal entries are not always repeated. Hit rate of the full screen: of about 400,000 compounds, about 13,000 (3.2%) were called active. The inconclusive results got no clear call from the source; some entries with a clear call stand among them for comparison. Calls follow the shape of the dose curve; as a rule, active = well fitted cell-killing curve with a large enough effect; inconclusive = small, poorly fitted or top-dose-only effect, or effect the other way; inactive = flat fitted curve, though single readings scatter. Where the call is inconclusive, the potency comes from a doubtful curve fit.
# Test: qHTS assay for MDR1-selective chemotherapeutics: Primary screen using the drug-selected MDR subline cells KB-V1; also: nearly all actives have a fitted effect of over 60% in size
# Details: KB-V1 MDR cells viability, CellTiter-Glo, 72 h; activity change, negative = cytotoxicity: at 46.1 µM (top of the series)
# Method in brief: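 KB-V1 MDR subline cells in DMEM (phenol-red free, 10% FBS) exposed to compounds in qHTS concentration series for 72 h at 37 degrees C. Viability read by CellTiter-Glo luminescence; concentration-effect curves fitted after normalization and correction.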
# % is scaled to controls: 0 for no effect and ±100 for the full control effect; potency is read from the fitted curve at half-maximal effect.
SMILES,Potency,"activity change, negative = cytotoxicity"
C=CCC[C@@H](Cc1ccc(F)cc1)C(=O)OC[C@H](Cc1c[nH]c2ccccc12)NC(=O)[C@@H](CC=C)CC(=O)N[C@H](CO)Cc1ccccc1,"inconclusive: 14.6 µM [rising, single point]",–
COc1cc(C(O)c2nc(-c3ccncc3)cs2)ccc1F (configuration not stated),"inconclusive: 32.6 µM [cytotoxic, single point]",–
CCCS(=O)(=O)N1CCCC(c2nc(-c3cccc(OC)c3)no2)C1 (configuration not stated),active: 11.6 µM,–
Cc1ccccc1-n1ncc2c(SCC(=O)NCc3cccs3)ncnc21,active: 7.31 µM,–
CCCNC(=O)C1(CC2CC(c3ccccc3)=NO2)CCN(C(=O)Cc2ccc(F)cc2)CC1 (configuration not stated),–,inactive: -13.5%
COc1ccc(S(=O)(=O)N2CCC(C(=O)NCCC(=O)NCc3cccc(OC)c3)CC2)cc1,"inconclusive: 29.1 µM [rising, single point]",–
COc1ccc(OC)c(CCNC(=O)c2cc3c(=O)n(C)c4ccccc4c3n2C)c1,–,inactive: 0.974%
Clc1ccc(Cn2ncc3c(NCCN4CCOCC4)ncnc32)cc1,active: 20.6 µM,–
CCOc1cc(/C=N/NC(=O)c2cccs2)ccc1OC(=O)N1CCOCC1,–,inactive: -23.6%
COc1ccc(C(O)c2nc(/C=C/c3ccc(C(F)(F)F)cc3)cs2)cc1 (configuration not stated),–,inconclusive: -20.1%
CC(=O)OCC(C)n1c(=O)c2ccccc2n1C(C)=O (configuration not stated),"inconclusive: 29.1 µM [rising, single point]",–
COc1cc(/C=N/N2C(=O)C3C4c5ccccc5C(c5ccccc54)C3C2=O)ccc1O (configuration not stated),active: 10.3 µM,–
c1ccc2c(Nc3ccc4c(c3)OCCO4)c3c(nc2c1)CCC3,"inconclusive: 23.1 µM [cytotoxic, single point]",–
O=C(COc1ccccc1-c1ccccc1)NNC(=O)NC1CCCCC1,"inconclusive: 23.1 µM [cytotoxic, single point]",–
O=C(COC(=O)Cc1ccc(Cl)cc1)NCc1ccc(F)cc1,"inconclusive: 29.1 µM [rising, single point]",–
Cc1cnc(C(=O)OCC(=O)NC2CCCCCCC2)cn1,"inconclusive: 14.6 µM [rising, single point]",–
COC(=O)CSc1nc(C)cc(N2CCOCC2)n1,"inconclusive: 16.4 µM [rising, single point]",–
Cc1cccc(-c2cnc3cccnn23)c1,–,inactive: -1.03%
Cc1ccccc1-c1nc(SCc2ccccn2)c2c(=O)n(C)c(=O)n(C)c2n1,"inconclusive: 4.11 µM [cytotoxic, partial curve, poor fit]",–
Cn1cc(C(=O)C(=O)N2CCCc3ccccc32)c2ccccc21,"inconclusive: 29.1 µM [cytotoxic, single point]",–
O=S(=O)(NCC(c1ccco1)N1CCN(c2ccccc2)CC1)c1ccc(F)cc1 (configuration not stated),active: 23.1 µM,–
Cc1cccc(C)c1NC(=O)C1(C)CSCC(=O)N1CCCN1CCOCC1 (configuration not stated),–,inactive: -0.464%
CC(C)(C)c1ccc(/C=N/N2CCN(c3ccccn3)CC2)cc1,"inconclusive: 23.1 µM [cytotoxic, single point]",–

SMILES,Potency,"activity change, negative = cytotoxicity"
COc1cc(C(=O)NC2CCN(C)CC2)ccc1Nc1ncc2c(n1)N(Cc1ccccc1)CCC(=O)N2C,"inconclusive: 29.1 µM [rising, single point]",–
O=C(c1ccc(=O)[nH]n1)N1CCN(S(=O)(=O)c2ccc(C(F)(F)F)cc2)CC1,–,inactive: 29.6%
COc1ccc(CN(C(=O)Cc2coc3ccc(C)cc23)C2CCS(=O)(=O)C2)cc1 (configuration not stated),"inconclusive: 20.6 µM [cytotoxic, single point]",–
COc1ccc(/C=N/NS(=O)(=O)c2ccccc2)cc1OC(=O)c1ccc(C)cc1,"inconclusive: 18.4 µM [cytotoxic, single point]",–
O=C(c1cccs1)N1CCN(CCCc2ccccc2)CC1,active: 11.6 µM,–
CC(C)(C)NCC(O)(c1ccc(Cl)cc1)c1ccc(Cl)cc1,"inconclusive: 14.6 µM [cytotoxic, partial curve, poor fit]",–
O=[N+]([O-])c1ccc(C=Nc2ccc(Cl)cc2Cl)s1,"inconclusive: 29.1 µM [cytotoxic, single point]",–
O=C(CSc1nnc2scc(-c3ccc(Cl)cc3)n12)NCc1ccco1,active: 23.1 µM,–
O=C(N/N=C/c1ccccc1Br)c1cccc(S(=O)(=O)N2CCOCC2)c1,–,inactive: -4.61%
O=C(NC1CC1)C1=C[C@@H](c2ccccc2)C[C@@H](OCc2ccc(CO)cc2)O1,"inconclusive: 0.461 µM [rising, full curve, poor fit]",–
CN(C)S(=O)(=O)c1ccc(C(=O)Nc2ccccc2F)cc1,–,inactive: -5.66%
CN1CC(C(=O)O)Cc2c1ccc1ccccc21 (configuration not stated),"inconclusive: 0.0231 µM [cytotoxic, full curve]",–
O=C1OC(c2cccs2)=N/C1=C\c1ccc(-c2cccc(Cl)c2)o1,–,inactive: 2.72%
O=C(Nc1ccccc1O)c1ccc(NC(=O)C2CC2)cc1,"inconclusive: 29.1 µM [cytotoxic, partial curve, poor fit]",–
CCc1cc2c(-c3ccccc3)cc(=O)oc2cc1OC(C)C(C)=O (configuration not stated),"inconclusive: 20.6 µM [cytotoxic, single point]",–
CCOc1ccc(NC(=O)Cn2c(=O)oc3cc(S(=O)(=O)N4CCC(C)CC4)ccc32)cc1,–,inactive: -0.476%
Cc1c(Cl)cccc1NS(=O)(=O)c1ccccc1,active: 18.4 µM,–
CC(C)C(C(=O)N1CCN(Cc2ccccc2)CC1)c1ccccc1 (configuration not stated),"inconclusive: 10.3 µM [cytotoxic, partial curve, poor fit]",–
CCCCNC(=O)C1C(c2ccc(OC)cc2)=Nc2ccccc2N1C(=O)c1cccnc1 (configuration not stated),"inconclusive: 5.8 µM [cytotoxic, partial curve, poor fit]",–
N#C/C(=C/c1ccc(Cl)cc1)NC(=O)c1ccccc1,"inconclusive: 10.3 µM [cytotoxic, partial curve]",–
COc1ccc(C2=Nn3c(nnc3-c3ccc(OC)cc3)SC2)cc1,active: 1.3 µM,–
Cc1ccc(CNCc2cc3c(C(C)(C)C)nn(-c4ccccc4)c3[nH]c2=O)cc1,active: 23.1 µM,–
COc1cc(-c2nc3cccc(C)n3c2NCC2CCCO2)ccc1O (configuration not stated),"inconclusive: 29.1 µM [cytotoxic, single point]",–

SMILES,Potency,"activity change, negative = cytotoxicity"
CCOC(=O)c1nn(-c2ccccc2F)c(-c2ccccc2)c1C(=O)c1ccccc1,"inconclusive: 16.4 µM [cytotoxic, partial curve, poor fit]",–
COc1ccccc1NC(=O)c1cc(S(=O)(=O)NC2CCCC2)ccc1F,"inconclusive: 2.31 µM [cytotoxic, partial curve, poor fit]",–
CCCCN(CC)CCCNC(=O)c1cn(CC)c2ccc(S(=O)(=O)N3CCOCC3)cc2c1=O,"inconclusive: 32.6 µM [rising, single point]",–
O=c1c2cnn(-c3ccccc3)c2nc(-c2cccs2)n1-c1cccc(Cl)c1,active: 10.3 µM,–
CC(C)(C)n1nnnc1C(c1cccs1)N(Cc1ccccc1)Cc1cccnc1 (configuration not stated),"inconclusive: 20.6 µM [cytotoxic, partial curve]",–
CC#CCN(Cc1ccco1)C(=O)C1CCC(=O)N(Cc2ccccc2F)C1 (configuration not stated),"inconclusive: 29.1 µM [cytotoxic, single point]",–
CCOc1ccccc1-n1nnc(S(=O)(=O)c2ccc(C)cc2)c1N,"inconclusive: 18.4 µM [cytotoxic, partial curve, poor fit]",–
Cc1ccc(NC(=O)CSc2nc(-c3ccco3)cc(C(F)(F)F)n2)cc1C,active: 2.59 µM and active: 4.11 µM,–
O=C(Nc1ccc2[nH]c(=O)[nH]c2c1)c1ccc([N+](=O)[O-])o1,"inconclusive: 29.1 µM [cytotoxic, single point]",–
Cc1cc(C)nc(SCc2nnc(SCC(=O)N3CCCc4ccccc43)o2)n1,"inconclusive: 11.6 µM [cytotoxic, partial curve]",–
CCOc1ccc(NC(=O)C2CC(=O)N(CCc3ccc(OC)c(OC)c3)C2)cc1OCC (configuration not stated),–,inactive: -18.6%
CCNC(=O)N1C[C@H]2CON(C)[C@H]2C[C@H]1c1ccccc1Br,–,inactive: 0%
COc1cc(NC(=O)C/C(C)=N/NC(=O)C(OC)c2ccccc2)c(OC)cc1Cl (configuration not stated),"inconclusive: 13 µM [rising, partial curve, poor fit]",–
CCOC(=O)c1csc(NC(=O)CCSc2ccccc2)n1,"inconclusive: 2.91 µM [cytotoxic, partial curve, poor fit]",–
COc1ccc(OC)c(NS(=O)(=O)c2ccc(Br)s2)c1,"inconclusive: 20.6 µM [cytotoxic, single point]",–
COc1ccc(NC(=O)c2cccc(N3C(=O)C4C5C=CC(C6CC56)C4C3=O)c2)cc1 (configuration not stated),"inconclusive: 13 µM [cytotoxic, single point]",–
COc1ccc(S(=O)(=O)N2CCN(C(=O)c3cc(-c4ccc(C)cc4)n[nH]3)CC2)cc1,"inconclusive: 14.6 µM [cytotoxic, single point]",–
COc1ccc2oc(C(=O)OCC(=O)N3CCN(S(=O)(=O)c4ccc(C)cc4)CC3)c(C)c2c1,"inconclusive: 20.6 µM [cytotoxic, partial curve, poor fit]",–
CCCCNC(=S)N(C)/N=C/c1c(C)[nH]c2ccccc12,"inconclusive: 10.3 µM [cytotoxic, partial curve]",–
CCN1C(=O)[C@H]2[C@@H](c3ccc(-c4ccc(C(C)=O)cc4)cc3)N3CCC[C@@]3(C(=O)OC)[C@H]2C1=O,"inconclusive: 29.1 µM [rising, single point]",–
COc1ccc(OC)c(S(=O)(=O)Nc2cccc(F)c2)c1,"inconclusive: 23.1 µM [cytotoxic, partial curve]",–

# Sorted by SMILES length (falling): 4 of the compounds above
SMILES,Potency,"activity change, negative = cytotoxicity"
CCN1C(=O)[C@H]2[C@@H](c3ccc(-c4ccc(C(C)=O)cc4)cc3)N3CCC[C@@]3(C(=O)OC)[C@H]2C1=O,"inconclusive: 29.1 µM [rising, single point]",–
COc1cc(NC(=O)C/C(C)=N/NC(=O)C(OC)c2ccccc2)c(OC)cc1Cl (configuration not stated),"inconclusive: 13 µM [rising, partial curve, poor fit]",–
O=C(Nc1ccc2[nH]c(=O)[nH]c2c1)c1ccc([N+](=O)[O-])o1,"inconclusive: 29.1 µM [cytotoxic, single point]",–
Cc1cc(C)nc(SCc2nnc(SCC(=O)N3CCCc4ccccc43)o2)n1,"inconclusive: 11.6 µM [cytotoxic, partial curve]",–
